Taken from: PubChem BioAssay AID720505 (Drosophila RNAi Screening Center, 2013)

Purpose: 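Fly regulators or components of the CRAC channel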 (primary screen)
Cells: Drosophila S2R+ cells
Knock-down reagent: long dsRNA against Drosophila genes
Conditions: thapsigargin (2 µM) in calcium-free buffer to empty internal stores, then 2 mM calcium added back
Measurement: 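Stores emptied by 2 µM thapsigargin without calcium, then 2 mM calcium re-added; fluo-4 fluorescence followed by FLIPR in 384-well plates, per-well averaged endpoint, raw; two screen passes, some wells retested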
Scale: calcium signal: higher = more calcium entry after store depletion
Hit rule: 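About 1500 genes called as lowering calcium entry, by varying amounts, judged against per-plate control wells with STIM1 as positive and Rho1 as negative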
Meaning of the calls: active = called as lowering calcium entry; inactive = not called
In all, the deposit lists about 20,000 reagents; this is a random part of those that have a named target and a result. In the full data, about 2,100 (10%) got an active call. 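Raw plate signals without normalisation; calls rest on control-based scores that were not deposited; replicate 2 separates called from uncalled poorly.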 Not stated in the record: the amount of reagent, the time to read-out.

Depletion of Pal2 [DRSC04507] came out at: calcium signal, replicate 1 = 141; calcium signal, replicate 2 = 162; inactive.
Silencing of CG3598 [DRSC18471] resulted in: calcium signal, replicate 1 = 129; calcium signal, replicate 2 = 142; inactive.
With knock-down of CG33978 [DRSC17106] the results were inactive.
Against bip1 [DRSC11327], the entry reads calcium signal, replicate 1 = 100; calcium signal, replicate 2 = 123; inactive.
Knock-down of gce [DRSC19613] resulted in: calcium signal, replicate 1 = 73.4; calcium signal, replicate 2 = 91.5; inactive.
After knock-down of gce [DRSC19974], the screen gave calcium signal, replicate 1 = 77.6; calcium signal, replicate 2 = 97.7; inactive.
Depletion of L (retired record) [DRSC05966] came out at: calcium signal, replicate 1 = 111; calcium signal, replicate 2 = 144; inactive.
L (retired record) [DRSC05967] scored calcium signal, replicate 1 = 87.8; calcium signal, replicate 2 = 127; inactive.
After knock-down of RpL13 [DRSC03416], the record shows calcium signal, replicate 1 = 91.8; calcium signal, replicate 2 = 123; inactive.
Against Snoo [DRSC01008], the values are calcium signal, replicate 1 = 164; calcium signal, replicate 2 = 105; inactive.
Silencing of Snoo [DRSC03004] resulted in: calcium signal, replicate 1 = 170; calcium signal, replicate 2 = 186; inactive.
Silencing of Snoo [DRSC03035] resulted in: calcium signal, replicate 1 = 102; calcium signal, replicate 2 = 118; inactive.

A portion from the list above:
L (retired record) [DRSC05967] | calcium signal, replicate 1 = 87.8; calcium signal, replicate 2 = 127; call = inactive
RpL13 [DRSC03416] | calcium signal, replicate 1 = 91.8; calcium signal, replicate 2 = 123; call = inactive
